# Source: the supplement of paper PMC10849652
# Chains of the proteins cited; added tags and fusions are not shown. Lines headed by an entry give the natural chain unless they say otherwise; changes in a name come on top.
# UniProt Q5TA45, whole entry, looked up: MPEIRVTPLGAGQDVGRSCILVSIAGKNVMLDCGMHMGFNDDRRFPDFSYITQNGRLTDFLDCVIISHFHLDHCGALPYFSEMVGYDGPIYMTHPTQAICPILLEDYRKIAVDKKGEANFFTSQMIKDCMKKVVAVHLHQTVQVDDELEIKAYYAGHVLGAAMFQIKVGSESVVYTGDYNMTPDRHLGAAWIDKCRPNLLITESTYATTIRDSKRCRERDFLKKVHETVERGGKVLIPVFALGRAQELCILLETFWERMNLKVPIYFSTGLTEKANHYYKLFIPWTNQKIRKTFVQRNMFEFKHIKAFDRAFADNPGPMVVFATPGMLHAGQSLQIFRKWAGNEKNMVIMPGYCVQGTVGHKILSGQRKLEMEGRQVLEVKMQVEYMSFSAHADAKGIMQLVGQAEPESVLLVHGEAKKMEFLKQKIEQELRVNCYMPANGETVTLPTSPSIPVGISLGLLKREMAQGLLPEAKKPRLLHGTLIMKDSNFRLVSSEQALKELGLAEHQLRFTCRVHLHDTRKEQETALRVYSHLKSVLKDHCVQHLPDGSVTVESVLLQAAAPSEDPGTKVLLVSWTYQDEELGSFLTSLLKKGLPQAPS
# UniProt P41252: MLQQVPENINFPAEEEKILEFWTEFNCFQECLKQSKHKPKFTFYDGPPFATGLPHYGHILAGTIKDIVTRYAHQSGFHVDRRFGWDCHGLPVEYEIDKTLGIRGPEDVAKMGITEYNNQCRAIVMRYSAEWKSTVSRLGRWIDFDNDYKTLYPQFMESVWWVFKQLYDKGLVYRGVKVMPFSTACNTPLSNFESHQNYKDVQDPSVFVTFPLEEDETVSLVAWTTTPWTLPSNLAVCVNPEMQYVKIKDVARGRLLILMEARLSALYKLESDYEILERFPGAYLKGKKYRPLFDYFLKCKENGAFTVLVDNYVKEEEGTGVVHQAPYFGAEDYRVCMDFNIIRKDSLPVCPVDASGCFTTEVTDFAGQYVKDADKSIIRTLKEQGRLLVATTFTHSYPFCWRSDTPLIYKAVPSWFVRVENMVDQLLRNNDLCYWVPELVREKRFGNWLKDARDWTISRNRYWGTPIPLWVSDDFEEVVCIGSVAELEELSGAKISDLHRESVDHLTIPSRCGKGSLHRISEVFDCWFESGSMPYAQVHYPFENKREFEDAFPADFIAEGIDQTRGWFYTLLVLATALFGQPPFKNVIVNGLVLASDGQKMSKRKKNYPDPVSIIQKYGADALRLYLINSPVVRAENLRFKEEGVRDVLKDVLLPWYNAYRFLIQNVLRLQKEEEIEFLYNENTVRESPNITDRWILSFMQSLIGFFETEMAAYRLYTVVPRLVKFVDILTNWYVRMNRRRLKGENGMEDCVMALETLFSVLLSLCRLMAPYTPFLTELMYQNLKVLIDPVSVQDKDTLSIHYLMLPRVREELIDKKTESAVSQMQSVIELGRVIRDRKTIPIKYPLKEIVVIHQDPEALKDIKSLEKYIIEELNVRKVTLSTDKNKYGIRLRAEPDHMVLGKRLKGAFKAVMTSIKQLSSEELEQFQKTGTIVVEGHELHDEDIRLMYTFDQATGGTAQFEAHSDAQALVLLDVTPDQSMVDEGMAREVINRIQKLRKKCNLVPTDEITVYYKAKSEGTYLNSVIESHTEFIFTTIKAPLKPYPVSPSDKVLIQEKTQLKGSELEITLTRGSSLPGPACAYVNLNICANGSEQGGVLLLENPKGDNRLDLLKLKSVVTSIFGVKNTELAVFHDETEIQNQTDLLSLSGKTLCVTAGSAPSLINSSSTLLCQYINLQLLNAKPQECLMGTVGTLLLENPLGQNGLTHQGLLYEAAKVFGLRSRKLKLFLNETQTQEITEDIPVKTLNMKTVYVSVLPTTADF
# UniProt Q13422: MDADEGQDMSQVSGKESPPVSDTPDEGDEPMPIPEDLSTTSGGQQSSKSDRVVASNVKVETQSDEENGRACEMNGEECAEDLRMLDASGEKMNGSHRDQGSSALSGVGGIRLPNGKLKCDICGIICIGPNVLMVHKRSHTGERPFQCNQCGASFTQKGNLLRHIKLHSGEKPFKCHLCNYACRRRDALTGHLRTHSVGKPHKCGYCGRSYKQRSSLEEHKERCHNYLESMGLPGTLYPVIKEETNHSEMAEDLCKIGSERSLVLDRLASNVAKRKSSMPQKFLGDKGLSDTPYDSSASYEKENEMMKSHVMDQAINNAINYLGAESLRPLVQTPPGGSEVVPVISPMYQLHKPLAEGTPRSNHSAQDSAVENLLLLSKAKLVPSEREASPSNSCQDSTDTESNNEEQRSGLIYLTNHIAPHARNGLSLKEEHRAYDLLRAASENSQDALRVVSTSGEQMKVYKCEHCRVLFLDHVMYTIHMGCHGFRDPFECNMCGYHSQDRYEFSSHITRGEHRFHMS
# UniProt O60921: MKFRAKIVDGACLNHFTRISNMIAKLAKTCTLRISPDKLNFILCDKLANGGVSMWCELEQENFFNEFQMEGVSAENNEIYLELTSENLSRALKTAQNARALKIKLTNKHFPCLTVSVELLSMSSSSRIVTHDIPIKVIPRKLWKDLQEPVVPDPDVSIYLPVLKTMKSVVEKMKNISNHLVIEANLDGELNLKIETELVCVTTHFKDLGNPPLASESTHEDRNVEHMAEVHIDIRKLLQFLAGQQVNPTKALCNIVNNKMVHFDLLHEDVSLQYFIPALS
# UniProt P61604, whole entry, looked up: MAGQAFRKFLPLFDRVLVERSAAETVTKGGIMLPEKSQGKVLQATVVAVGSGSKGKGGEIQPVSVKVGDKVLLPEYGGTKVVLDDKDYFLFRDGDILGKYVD
# UniProt O14920: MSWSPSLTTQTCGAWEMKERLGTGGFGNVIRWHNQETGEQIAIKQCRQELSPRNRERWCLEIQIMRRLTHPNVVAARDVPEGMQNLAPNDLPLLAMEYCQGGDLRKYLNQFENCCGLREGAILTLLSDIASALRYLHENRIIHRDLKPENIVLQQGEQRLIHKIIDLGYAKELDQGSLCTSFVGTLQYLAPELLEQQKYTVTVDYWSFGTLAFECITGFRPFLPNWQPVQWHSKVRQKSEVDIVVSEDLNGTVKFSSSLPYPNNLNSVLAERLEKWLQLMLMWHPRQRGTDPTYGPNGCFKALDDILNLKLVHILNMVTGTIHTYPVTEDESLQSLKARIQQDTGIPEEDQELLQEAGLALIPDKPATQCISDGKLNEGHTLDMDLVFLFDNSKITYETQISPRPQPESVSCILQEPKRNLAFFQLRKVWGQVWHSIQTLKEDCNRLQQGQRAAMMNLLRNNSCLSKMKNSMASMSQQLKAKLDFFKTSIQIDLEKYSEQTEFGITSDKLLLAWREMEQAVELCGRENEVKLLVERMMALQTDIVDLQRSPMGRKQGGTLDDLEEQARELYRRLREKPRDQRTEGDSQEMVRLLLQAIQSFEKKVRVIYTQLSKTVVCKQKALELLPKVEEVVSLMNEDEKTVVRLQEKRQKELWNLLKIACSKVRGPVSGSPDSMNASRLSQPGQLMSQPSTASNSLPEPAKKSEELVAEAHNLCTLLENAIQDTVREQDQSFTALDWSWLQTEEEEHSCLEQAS
# UniProt Q9H6K1: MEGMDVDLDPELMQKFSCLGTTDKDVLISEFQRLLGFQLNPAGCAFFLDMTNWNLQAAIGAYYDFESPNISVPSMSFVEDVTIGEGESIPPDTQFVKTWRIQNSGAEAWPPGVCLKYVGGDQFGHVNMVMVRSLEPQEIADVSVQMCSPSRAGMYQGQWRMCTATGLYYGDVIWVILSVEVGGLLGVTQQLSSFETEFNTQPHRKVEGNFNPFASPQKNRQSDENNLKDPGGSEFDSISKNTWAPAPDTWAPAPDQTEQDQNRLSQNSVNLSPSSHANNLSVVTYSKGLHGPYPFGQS
# UniProt O43837: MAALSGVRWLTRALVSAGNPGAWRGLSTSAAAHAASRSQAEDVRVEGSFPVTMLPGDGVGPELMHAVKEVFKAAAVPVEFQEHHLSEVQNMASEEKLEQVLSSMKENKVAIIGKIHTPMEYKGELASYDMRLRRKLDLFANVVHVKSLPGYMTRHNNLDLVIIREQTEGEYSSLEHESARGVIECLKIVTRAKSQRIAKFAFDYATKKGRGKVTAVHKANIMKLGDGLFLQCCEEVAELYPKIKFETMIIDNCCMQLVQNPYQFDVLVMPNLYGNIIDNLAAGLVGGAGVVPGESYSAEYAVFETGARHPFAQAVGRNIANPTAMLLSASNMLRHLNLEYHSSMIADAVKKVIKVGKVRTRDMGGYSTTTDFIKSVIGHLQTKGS
# UniProt Q13418: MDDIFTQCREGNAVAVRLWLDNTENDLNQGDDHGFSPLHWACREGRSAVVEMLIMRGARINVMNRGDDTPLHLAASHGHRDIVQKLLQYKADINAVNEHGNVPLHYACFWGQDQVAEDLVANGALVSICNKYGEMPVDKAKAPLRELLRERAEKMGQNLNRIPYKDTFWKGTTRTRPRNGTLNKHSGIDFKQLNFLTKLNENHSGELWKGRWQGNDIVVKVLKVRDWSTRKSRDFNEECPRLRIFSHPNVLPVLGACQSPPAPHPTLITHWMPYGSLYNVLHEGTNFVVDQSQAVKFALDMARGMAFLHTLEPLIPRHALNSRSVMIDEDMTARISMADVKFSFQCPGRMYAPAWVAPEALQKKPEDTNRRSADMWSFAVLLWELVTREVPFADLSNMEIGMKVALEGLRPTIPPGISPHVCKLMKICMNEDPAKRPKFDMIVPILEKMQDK
# UniProt O43719: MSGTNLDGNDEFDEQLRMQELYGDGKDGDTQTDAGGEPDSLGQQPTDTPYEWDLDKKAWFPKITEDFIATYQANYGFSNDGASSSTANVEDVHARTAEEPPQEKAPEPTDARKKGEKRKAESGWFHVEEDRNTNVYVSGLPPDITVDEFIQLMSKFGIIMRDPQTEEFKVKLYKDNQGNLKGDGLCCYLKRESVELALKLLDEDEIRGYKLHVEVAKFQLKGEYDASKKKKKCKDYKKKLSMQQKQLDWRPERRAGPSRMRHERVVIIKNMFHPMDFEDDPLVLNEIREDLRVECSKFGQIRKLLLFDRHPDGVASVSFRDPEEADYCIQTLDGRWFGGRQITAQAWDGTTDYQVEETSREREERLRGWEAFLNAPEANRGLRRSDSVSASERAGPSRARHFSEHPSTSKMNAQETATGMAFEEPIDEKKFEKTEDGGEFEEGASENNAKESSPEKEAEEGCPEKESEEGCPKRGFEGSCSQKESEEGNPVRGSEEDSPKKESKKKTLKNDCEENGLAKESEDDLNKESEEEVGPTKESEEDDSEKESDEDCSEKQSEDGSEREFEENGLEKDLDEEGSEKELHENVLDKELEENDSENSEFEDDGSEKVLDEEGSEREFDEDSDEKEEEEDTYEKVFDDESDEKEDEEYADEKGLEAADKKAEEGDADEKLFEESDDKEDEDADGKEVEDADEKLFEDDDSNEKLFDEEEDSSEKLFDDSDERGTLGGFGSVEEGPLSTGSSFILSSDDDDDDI
# UniProt P10809, whole entry, looked up: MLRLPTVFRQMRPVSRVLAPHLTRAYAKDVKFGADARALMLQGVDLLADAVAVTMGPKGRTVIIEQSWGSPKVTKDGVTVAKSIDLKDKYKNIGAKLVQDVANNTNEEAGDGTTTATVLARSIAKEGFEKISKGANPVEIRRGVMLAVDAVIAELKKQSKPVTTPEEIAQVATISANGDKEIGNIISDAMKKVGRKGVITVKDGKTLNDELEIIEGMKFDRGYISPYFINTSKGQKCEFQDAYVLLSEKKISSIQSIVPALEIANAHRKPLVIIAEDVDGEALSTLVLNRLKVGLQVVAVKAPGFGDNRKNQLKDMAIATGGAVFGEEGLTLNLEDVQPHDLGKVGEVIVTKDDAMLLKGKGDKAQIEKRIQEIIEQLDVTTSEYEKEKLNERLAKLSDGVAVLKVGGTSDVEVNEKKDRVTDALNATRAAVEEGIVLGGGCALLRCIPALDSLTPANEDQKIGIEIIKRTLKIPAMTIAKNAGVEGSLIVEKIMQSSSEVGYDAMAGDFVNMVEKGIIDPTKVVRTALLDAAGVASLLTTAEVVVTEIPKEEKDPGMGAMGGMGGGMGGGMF
# UniProt Q70UQ0: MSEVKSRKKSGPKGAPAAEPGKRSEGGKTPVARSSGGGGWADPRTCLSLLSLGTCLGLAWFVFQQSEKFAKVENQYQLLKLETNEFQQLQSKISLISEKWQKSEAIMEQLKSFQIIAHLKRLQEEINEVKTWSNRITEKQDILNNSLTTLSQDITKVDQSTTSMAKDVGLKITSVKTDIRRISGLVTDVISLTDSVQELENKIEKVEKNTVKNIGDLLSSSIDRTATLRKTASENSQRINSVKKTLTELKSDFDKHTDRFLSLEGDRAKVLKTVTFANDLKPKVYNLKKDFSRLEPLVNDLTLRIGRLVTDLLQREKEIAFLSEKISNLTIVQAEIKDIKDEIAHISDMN
# UniProt Q14116, whole entry, looked up: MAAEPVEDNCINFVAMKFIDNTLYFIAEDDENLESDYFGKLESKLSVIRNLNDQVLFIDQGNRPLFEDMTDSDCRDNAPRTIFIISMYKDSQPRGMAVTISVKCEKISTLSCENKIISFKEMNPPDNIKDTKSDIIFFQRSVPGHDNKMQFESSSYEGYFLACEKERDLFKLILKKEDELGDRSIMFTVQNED
# Some of the results follow.
# Experiments:
# Assay in all cases: log2 fold change, soluble protein after heating vs DMSO (PISA); higher = thermal stabilisation; K562 lysate, 10 uM; active = over 0.2 and 3.5 SD of the protein, either way, in both replicates (recomputed)
# [1] = compound: CN1CC[C@H](c2c(O)cc(O)c3c(=O)cc(-c4ccccc4Cl)oc23)[C@H](O)C1 [alvocidib]
# Procedure, shortened: (§1)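 A 30 min treatment with 10 μM compound was applied to crude K562 extract at 1 mg/mL protein in PBS pH 7.4 with 1 mM MgCl2. Heating for 3 min spanned 48°C-58°C, after which aliquots were pooled, adjusted to 0.5% NP-40 at 4°C and spun at 21,000xg for 90 min. TMTpro 16plex LC-MS/MS of the supernatant, with channel sums equalised, gave values recorded as log-two fold change in thermal stability against solvent controls, from duplicates.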
# [2] = compound: CN1CCc2c(c3ccccc3n2Cc2ccc(C(=O)NO)cc2)C1 [Tubastatin A]
# Procedure, shortened: as §1
# [3] = compound: CNC(=O)C1=CC=CC=C1NC2=NC(=NC=C2Cl)NC3=C(C=C(C=C3)N4CCOCC4)OC
# Procedure, shortened: as §1
# [4] = compound: CNC(=O)c1ccc(Nc2ncc(C(F)(F)F)c(NCc3nccnc3N(C)S(C)(=O)=O)n2)cc1 [defactinib]
# Procedure, shortened: as §1
# [5] = compound: CNc1nc(-c2ccc3c(N)n[nH]c3c2)cc(N2C[C@@H](C(=O)NC3CCCCC3)CC[C@H]2C)n1
# Procedure, shortened: as §1
# [6] = compound: COC(=O)N[C@@H](C)CNc1nccc(-c2cn(C(C)C)nc2-c2cc(Cl)cc(NS(C)(=O)=O)c2F)n1 [encorafenib]
# Procedure, shortened: as §1
# [7] = compound: COC(=O)[C@H](CCSC)NC(=O)C1=C(C=C(C=C1)NC[C@H](CS)N)C2=CC=CC=C2
# Procedure, shortened: as §1
# [8] = compound: COc1cc(Nc2ncc3c(n2)-c2ccc(Cl)cc2C(c2c(F)cccc2OC)=NC3)ccc1C(=O)O [alisertib]
# Procedure, shortened: as §1
# [9] = compound: COc1cc2nc(-c3cc(F)ccc3O)nc(N[C@@H]3CNC[C@H]3C(C)(C)O)c2cc1OC
# Procedure, shortened: as §1
# [10] = compound: COc1cc2ncnc(Nc3ccc(F)c(Cl)c3)c2cc1OCCCN1CCOCC1 [gefitinib]
# Procedure, shortened: as §1
# [11] = compound: CS(=O)(=O)CCNCc1ccc(-c2ccc3ncnc(Nc4ccc(OCc5cccc(F)c5)c(Cl)c4)c3c2)o1 [lapatinib]
# Procedure, shortened: as §1
# [12] = compound: CS(=O)(=O)N1CCN(Cc2cc3nc(-c4cccc5[nH]ncc45)nc(N4CCOCC4)c3s2)CC1 [pictilisib]
# Procedure, shortened: as §1
# [13] = compound: C[C@@H](Oc1cc(-c2cnn(C3CCNCC3)c2)cnc1N)c1c(Cl)ccc(F)c1Cl [crizotinib]
# Procedure, shortened: as §1
# [14] = compound: C[C@H](C1=CC=C(C=C1)C(=O)NC2=C3C=CNC3=NC=C2)N
# Procedure, shortened: as §1
# [15] = compound: C[C@H](Nc1ncnc2nc[nH]c12)c1cc2cccc(Cl)c2c(=O)n1-c1ccccc1 [duvelisib]
# Procedure, shortened: as §1
# [16] = compound: Cc1cc(Nc2cc(CN3CCOCC3)c3nc(C)c(Cc4ccc(Cl)cc4F)n3n2)n[nH]1 [gandotinib]
# Procedure, shortened: as §1
# [17] = compound: Cc1cc(Nc2cc(N3CCN(C)CC3)nc(Sc3ccc(NC(=O)C4CC4)cc3)n2)n[nH]1 [tozasertib]
# Procedure, shortened: as §1
# [18] = compound: Cc1ccc(-n2nc(C(C)(C)C)cc2NC(=O)Nc2ccc(OCCN3CCOCC3)c3ccccc23)cc1 [doramapimod]
# Procedure, shortened: as §1
# [19] = compound: Cc1ccc(NC(=O)c2ccc(CN3CC[C@H](N(C)C)C3)c(C(F)(F)F)c2)cc1Nc1nccc(-c2cncnc2)n1 [bafetinib]
# Procedure, shortened: as §1
# [20] = compound: Cc1cccc(CC(=O)N2CCc3c2ccc(-c2cn(C)c4ncnc(N)c24)c3F)n1
# Procedure, shortened: as §1
Target,log2 fold change [1],log2 fold change [2],log2 fold change [3],log2 fold change [4],log2 fold change [5],log2 fold change [6],log2 fold change [7],log2 fold change [8],log2 fold change [9],log2 fold change [10],log2 fold change [11],log2 fold change [12],log2 fold change [13],log2 fold change [14],log2 fold change [15],log2 fold change [16],log2 fold change [17],log2 fold change [18],log2 fold change [19],log2 fold change [20]
INTS11 (UniProt Q5TA45),inactive: 0.026,inactive: -0.019,inactive: 0.036,inactive: 0.043,inactive: -0.042,inactive: -0.02,inactive: 0.019,inactive: -0.013,inactive: 0.024,inactive: 0.036,inactive: -0.028,inactive: -0.016,inactive: 0.007,inactive: 0.02,inactive: -0.042,inactive: -0.057,inactive: 0.009,inactive: -0.011,inactive: -0.066,inactive: 0.027
IARS (UniProt P41252),inactive: 0.006,inactive: -0.134,inactive: 0.01,inactive: 0.02,inactive: -0.03,inactive: 0,inactive: 0.134,inactive: 0.02,inactive: 0.008,inactive: -0.021,inactive: -0.032,inactive: -0.006,inactive: -0.045,inactive: 0.059,inactive: -0.001,inactive: -0.13,inactive: 0.013,inactive: 0.016,inactive: -0.015,inactive: -0.041
IKZF1 (UniProt Q13422),inactive: 0.025,inactive: -0.005,inactive: 0.059,inactive: 0.029,inactive: 0.014,inactive: 0.004,inactive: -0.004,inactive: 0.093,inactive: -0.053,inactive: -0.006,inactive: 0.018,inactive: -0.114,inactive: 0.068,inactive: 0.03,inactive: 0.001,inactive: -0.089,inactive: -0.058,inactive: -0.022,inactive: 0,inactive: -0.162
HSPA8 (UniProt P11142),inactive: 0.005,inactive: 0.056,inactive: -0.036,inactive: -0.003,inactive: -0.019,inactive: -0.004,inactive: 0.009,inactive: 0.002,inactive: -0.004,inactive: 0.008,inactive: 0.004,inactive: 0.022,inactive: 0.023,inactive: 0.012,inactive: 0.005,inactive: -0.014,inactive: 0.006,inactive: 0.001,inactive: 0.059,inactive: -0.01
HUS1 (UniProt O60921),inactive: -0.018,inactive: 0.039,inactive: 0.079,inactive: -0.027,inactive: 0.007,inactive: 0.011,inactive: 0.059,inactive: -0.023,inactive: 0.029,inactive: 0.036,inactive: -0.016,inactive: -0.04,inactive: -0.015,inactive: -0.028,inactive: 0.011,inactive: 0.007,inactive: -0.029,inactive: 0.065,inactive: -0.032,inactive: -0.007
HSPE1 (UniProt P61604),inactive: 0.052,inactive: 0.068,inactive: -0.019,inactive: 0.037,inactive: 0.02,inactive: 0,inactive: -0.031,inactive: 0.016,inactive: 0.016,inactive: -0.083,inactive: 0.036,inactive: 0.034,inactive: 0.026,inactive: 0.038,inactive: 0.036,inactive: 0.003,inactive: 0.063,inactive: 0.003,inactive: 0.015,inactive: 0.004
IKBKB (UniProt O14920),inactive: 0.073,inactive: 0.004,inactive: -0.014,inactive: -0.006,inactive: -0.028,inactive: 0.02,inactive: 0.093,inactive: -0.023,inactive: -0.033,inactive: 0.056,inactive: 0.031,inactive: -0.019,inactive: -0.01,inactive: 0.105,inactive: 0.008,inactive: -0.015,inactive: -0.031,inactive: -0.002,inactive: -0.051,inactive: -0.028
ILRUN (UniProt Q9H6K1),inactive: 0.031,inactive: -0.059,inactive: 0.047,inactive: -0.01,inactive: -0.004,inactive: 0.052,inactive: -0.03,inactive: 0.123,inactive: 0.056,inactive: 0.115,inactive: -0.045,inactive: -0.033,inactive: 0.009,inactive: -0.025,inactive: 0.016,inactive: 0.012,inactive: 0.013,inactive: -0.028,inactive: -0.023,inactive: -0.017
IFI30 (UniProt P13284),inactive: -0.002,inactive: -0.023,inactive: 0.01,inactive: -0.036,inactive: 0.024,inactive: 0.016,inactive: -0.021,inactive: -0.068,inactive: 0.018,inactive: 0.052,inactive: 0.029,inactive: 0.033,inactive: 0.019,inactive: -0.036,inactive: 0.039,inactive: 0.053,inactive: -0.042,inactive: 0.032,inactive: 0.041,inactive: 0.055
IDH3B (UniProt O43837),inactive: -0.022,inactive: -0.013,inactive: -0.043,inactive: 0.016,inactive: -0.003,inactive: -0.025,inactive: 0.058,inactive: 0.014,inactive: -0.014,inactive: -0.039,inactive: 0.005,inactive: -0.041,inactive: 0.008,inactive: -0.081,inactive: -0.004,inactive: 0.002,inactive: 0.002,inactive: -0.016,inactive: -0.019,inactive: -0.004
ILK (UniProt Q13418),inactive: 0.002,inactive: -0.084,inactive: -0.002,inactive: -0.026,inactive: -0.061,inactive: -0.032,inactive: 0.038,inactive: 0.007,inactive: -0.04,inactive: 0.013,inactive: 0.01,inactive: -0.005,inactive: -0.038,inactive: 0.01,inactive: -0.036,inactive: -0.015,inactive: 0.005,inactive: 0.004,inactive: -0.002,inactive: 0.007
HSPB1 (UniProt P04792),inactive: 0.003,inactive: -0.023,inactive: -0.003,inactive: 0,inactive: -0.036,inactive: -0.001,inactive: 0.025,inactive: 0.012,inactive: 0.009,inactive: -0.012,inactive: -0.017,inactive: -0.013,inactive: 0.036,inactive: 0.008,inactive: 0.014,inactive: -0.018,inactive: -0.017,active: -0.31,inactive: -0.031,inactive: -0.021
HTATSF1 (UniProt O43719),inactive: -0.037,inactive: -0.025,inactive: -0.018,inactive: 0.004,inactive: -0.053,inactive: 0.017,inactive: 0.011,inactive: -0.009,inactive: -0.013,inactive: -0.011,inactive: 0.003,inactive: 0.03,inactive: 0.006,inactive: -0.02,inactive: 0.007,inactive: -0.018,inactive: 0.026,inactive: 0.01,inactive: 0.006,inactive: 0.032
HSPD1 (UniProt P10809),inactive: -0.02,inactive: 0.039,inactive: 0,inactive: -0.031,inactive: 0.041,inactive: -0.021,inactive: 0.01,inactive: 0,inactive: 0.019,inactive: -0.005,inactive: 0.001,inactive: -0.012,inactive: 0,inactive: 0,inactive: 0.003,inactive: 0.05,inactive: 0.003,inactive: -0.013,inactive: -0.003,inactive: 0.017
IKBIP isoform 4 (UniProt Q70UQ0),inactive: -0.006,inactive: 0.024,inactive: -0.039,inactive: -0.013,inactive: 0.016,inactive: -0.024,inactive: -0.032,inactive: 0,inactive: -0.007,inactive: -0.027,inactive: -0.005,inactive: -0.049,inactive: 0.004,inactive: -0.024,inactive: -0.004,inactive: 0.024,inactive: 0.018,inactive: -0.027,inactive: -0.027,inactive: 0.026
IL18 (UniProt Q14116),inactive: -0.011,inactive: 0.018,inactive: -0.043,inactive: -0.044,inactive: -0.028,inactive: -0.1,inactive: -0.066,inactive: -0.058,inactive: 0.035,inactive: 0.043,inactive: -0.019,inactive: 0.005,inactive: 0,inactive: -0.073,inactive: -0.009,inactive: 0.058,inactive: -0.011,inactive: -0.025,inactive: -0.012,inactive: 0.028

# Just log2 fold change [5] (two entries from above):
Target	log2 fold change [5]
HUS1 (UniProt O60921)	inactive: 0.007
HSPE1 (UniProt P61604)	inactive: 0.02
